In patent publication US20220396600 (published 2022):
Plain letter strings leave the end groups untold. Non-standard residues stand in square brackets, D forms with d. No end group written: not given here. Aib = CC(C)(N)C(=O)O

Experiment: general procedure: Fmoc solid-phase peptide synthesis; Wang type resins or super acid labile resins of the CI-Trt or Sasrin type
Details: whole synthesis, RP-HPLC and mass spectrometry (ESI-TOF), trifluoroacetate salt or chloride salt
With [Aib]WFKYYGKAIY the “final HPLC purity” value was 96.1%.
In the case of WFKYYGKAIY, the “final HPLC purity” value is reported as 99.9%.
With CF-WFKYYGKAIY the “final HPLC purity” value was 97.7%.
In the case of CF-WFKYYGK-Aib-IY, the “final HPLC purity” value is reported as 83.1%.
In the case of WFKYYGK-Aib-IY, the “final HPLC purity” value is reported as 97.8%.
With Pal-WFKYYGK-Aib-IY the “final HPLC purity” value was 99.9%.
In the case of Pal-WFKYYGKAIY, the “final HPLC purity” value is reported as 95.0%.
